From ChEMBL document CHEMBL3988442, “University of Dundee, Small-Polar-MMV Screening Library” (2021).

A: 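Whole-cell assay for inhibitors of Mycobacterium tuberculosis growth, labelled Cornell in the record; the read-out is not stated. The concentration is filed as 10 mM, unlikely as a test dose, so the dose is not known. The record gives no direction; compounds strong in two other growth screens of this library score well above the rest, so higher reads as stronger inhibition. About 53,000 compounds were tested under these conditions; 1.7% (about 900) showed 50% or more at least once.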
B: 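Assay on Mycobacterium tuberculosis, filed only as a heat shock assay from Cornell; the read-out is not stated. The concentration is filed as 10 mM, unlikely as a test dose, so the dose is not known. Higher reads as stronger inhibition (inferred: compounds with an IC50 in retests scored well above the rest). Of about 69,000 compounds tested this way, about 930 (1.4%) reached 50% or more in at least one test.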

Values are the deposited “Percent Effect”, in %.
The record does not define 0% and 100%; most values in the screen are far below 50% and negative numbers occur (in some assays of this library far below -100).
This is an unselected part of the compounds tested.
A dash means the value is not listed here; it may have been measured.

compound	A	B
c1c(-c2nc(CN3CCOCC3)no2)nnn1CC1CCCCC1	-	-24.69%
Cc1ccccc1CC(=O)N1CC[C@@](O)(CNS(C)(=O)=O)[C@H](O)C1	-27.39%	-12.47%
CN(Cc1nc2ccccc2[nH]1)C(=O)C(C)(C)n1cc(Cl)cn1	26.01%	-10.02%
O=C(C1CCOCC1)N1CCC2(CCC(C(=O)N3CCCC3)O2)CC1 (stereo not shown)	-	14%
Cn1cnc2c1C(COCC1CCOCC1)CN(C(=O)c1ccoc1)C2 (stereo not shown)	-	-14.97%
Cc1ccc(CN(C)Cc2nc3c(cnn3C)c(=O)[nH]2)o1	14.57%	11.41%
CCOCC1CN(C(=O)CC2=CCCCC2)Cc2nnn(C)c21 (stereo not shown)	-12.58%	-0.784%
Cc1ccnc2c1NC(=O)CN2C(=O)CCc1cccs1	11.93%	2.44%
CC(C)N(CCNC(=O)c1ccc(S(=O)(=O)NC2CC2)cc1)C(C)C	12.63%	-16.12%
Cc1noc(C)c1CN(C)C(=O)C1(N)CCCCC1	10.83%	-7.542%
CN1CCCC(CCC(=O)N2CCc3c(nc(CC4CC4)[nH]c3=O)C2)C1 (stereo not shown)	-	4.497%
Cc1ccc(N2CCCC(NCc3cccc4c3OCO4)C2)nn1 (stereo not shown)	-	-9.382%
Cc1cc(C)c2c(NCCC3(O)CCCC3)ncnc2n1	-13.03%	26.66%
CCC1CN(CC(=O)NCCN2CCCC2)c2ccccc2S1 (stereo not shown)	32.84%	11.9%
C=C(C)CNC(C)c1ccc(S(C)(=O)=O)c(F)c1 (stereo not shown)	-	-23.29%
Cc1cc(OCC(=O)NS(=O)(=O)c2cccnc2)ccc1Cl	-	-1.792%
COc1ccccc1C(C)N(C)Cc1nc2c(cnn2C)c(=O)[nH]1 (stereo not shown)	-	82.45%
CCc1nc2n(n1)CC(NCc1nc(C)ccc1O)CC2 (stereo not shown)	10.59%	1.67%
CCCc1nc(N2CCCCC2)c2c(n1)c(C)nn2CC	-11.73%	-7.298%
COCCCN1CC2(CCCCN2C(C)=O)CC1=O (stereo not shown)	-3.939%	-26.18%
Cc1ncsc1C(=O)NCc1ccc(-c2n[nH]cc2C(=O)N(C)C)cc1	-1.081%	-11.67%
CN1CCN(c2ccc3ccc(C(=O)N4CCCCO4)cn23)CC1.O=C(O)C(F)(F)F	35.57%	28.6%
CCn1ccc(CN(C)C(=O)CSc2nnc(N)s2)n1	-14.27%	-6.844%
O=C(O)C1CN(c2cncc(Cc3ccccc3F)n2)C1	-4.239%	11.24%
Cl.O=C(NCCn1nc(C2CCNC2)c2cccnc21)C1CCC1 (stereo not shown)	-12.51%	-9.695%
Cc1nc(CN(Cc2ccncc2)C2CCN(C)CC2)cs1	9.655%	-13.37%
Cc1cs/c(=N\C(=O)Cn2nc(N3CCOCC3)ccc2=O)[nH]1	32.69%	2.681%
Cc1ccccc1CC(=O)NCCNc1nccc(C(F)(F)F)n1	-26.99%	-11.49%
COC1CCN(S(=O)(=O)N2CCCC2c2ccco2)CC1 (stereo not shown)	21.82%	5.85%
COCCNC(=O)c1ccc2ccc(N(C)CC3CC3)n2c1	-47.45%	24.26%
CCC[C@@H]1CN(c2ncnc3sccc23)C[C@H]1C(=O)O	-17.41%	4.577%
CNc1ncc(C(=O)N2CCOC(C(=O)NC3CCCC3)C2)cn1 (stereo not shown)	12.54%	-1.25%
CCc1ccc(O)c(C(=O)N2CCN(CC(=O)N(CC)CC)CC2)c1	-14.81%	-3.334%
COc1ccccc1OC1CN(C(=O)c2ccc(C(C)=O)s2)C1	-4.28%	23.23%
COCCN1CCN(S(C)(=O)=O)Cc2ccc(C)nc21.O=C(O)C(F)(F)F	-22.99%	-16.34%
COc1cc(CN2CC[C@H](NC(C)=O)[C@@H](O)CC2)ccc1F	-17.63%	-27.09%
Cc1cc2nc(O)c(O)nc2cc1S(=O)(=O)NC1CC1	1.29%	3.082%
Cc1cc(-c2cnc(NCc3cccnc3)nc2C(C)(C)C)on1	-	31.35%
F[C@@H]1CN(CC2CC2)C[C@@H]1OCc1nc2ccccc2o1	22.9%	-25.08%
Cc1occc1-c1nc(NC2CCCC2)ncc1-c1ccccn1	85.8%	24.5%
O=C(CCn1cccn1)N1CCC(C2CCN(c3ncccn3)CC2)C1 (stereo not shown)	-19.48%	8.365%
CCOc1ccc(C(=O)Nc2c(C)nc3ccccn3c2=O)cc1	-7.342%	-10.61%
O=C(O)C(F)(F)F.[H][C@@]12COC[C@]1([H])[C@@H](OCc1csc(C)n1)CN2C(=O)c1cccn1C	-4.953%	9.106%
CCc1ccsc1C(=O)N1CCN(C(=O)c2ccc(C)o2)CC1	-20.77%	10.61%
COC(=O)c1sc(C(F)(F)F)cc1OC	-9.797%	13%

The last 6 entries again:

compound,A,B
Cc1occc1-c1nc(NC2CCCC2)ncc1-c1ccccn1,85.8%,24.5%
O=C(CCn1cccn1)N1CCC(C2CCN(c3ncccn3)CC2)C1 (stereo not shown),-19.48%,8.365%
CCOc1ccc(C(=O)Nc2c(C)nc3ccccn3c2=O)cc1,-7.342%,-10.61%
O=C(O)C(F)(F)F.[H][C@@]12COC[C@]1([H])[C@@H](OCc1csc(C)n1)CN2C(=O)c1cccn1C,-4.953%,9.106%
CCc1ccsc1C(=O)N1CCN(C(=O)c2ccc(C)o2)CC1,-20.77%,10.61%
COC(=O)c1sc(C(F)(F)F)cc1OC,-9.797%,13%